Measured values taken from patent US20230203153A1 (CHILDREN S MEDICAL CENTER, published 2023).
Positions count from the first letter of the chain named. These are yes or no findings as the source states them, for the method shown. Some entries that bind do so weakly or less than the wild type.

Protein sequences, listed by entry. Tags and fused reporters are not part of them. Lines headed by an entry give the natural chain unless they say otherwise; changes in a name come on top.
UniProt B5X0E4: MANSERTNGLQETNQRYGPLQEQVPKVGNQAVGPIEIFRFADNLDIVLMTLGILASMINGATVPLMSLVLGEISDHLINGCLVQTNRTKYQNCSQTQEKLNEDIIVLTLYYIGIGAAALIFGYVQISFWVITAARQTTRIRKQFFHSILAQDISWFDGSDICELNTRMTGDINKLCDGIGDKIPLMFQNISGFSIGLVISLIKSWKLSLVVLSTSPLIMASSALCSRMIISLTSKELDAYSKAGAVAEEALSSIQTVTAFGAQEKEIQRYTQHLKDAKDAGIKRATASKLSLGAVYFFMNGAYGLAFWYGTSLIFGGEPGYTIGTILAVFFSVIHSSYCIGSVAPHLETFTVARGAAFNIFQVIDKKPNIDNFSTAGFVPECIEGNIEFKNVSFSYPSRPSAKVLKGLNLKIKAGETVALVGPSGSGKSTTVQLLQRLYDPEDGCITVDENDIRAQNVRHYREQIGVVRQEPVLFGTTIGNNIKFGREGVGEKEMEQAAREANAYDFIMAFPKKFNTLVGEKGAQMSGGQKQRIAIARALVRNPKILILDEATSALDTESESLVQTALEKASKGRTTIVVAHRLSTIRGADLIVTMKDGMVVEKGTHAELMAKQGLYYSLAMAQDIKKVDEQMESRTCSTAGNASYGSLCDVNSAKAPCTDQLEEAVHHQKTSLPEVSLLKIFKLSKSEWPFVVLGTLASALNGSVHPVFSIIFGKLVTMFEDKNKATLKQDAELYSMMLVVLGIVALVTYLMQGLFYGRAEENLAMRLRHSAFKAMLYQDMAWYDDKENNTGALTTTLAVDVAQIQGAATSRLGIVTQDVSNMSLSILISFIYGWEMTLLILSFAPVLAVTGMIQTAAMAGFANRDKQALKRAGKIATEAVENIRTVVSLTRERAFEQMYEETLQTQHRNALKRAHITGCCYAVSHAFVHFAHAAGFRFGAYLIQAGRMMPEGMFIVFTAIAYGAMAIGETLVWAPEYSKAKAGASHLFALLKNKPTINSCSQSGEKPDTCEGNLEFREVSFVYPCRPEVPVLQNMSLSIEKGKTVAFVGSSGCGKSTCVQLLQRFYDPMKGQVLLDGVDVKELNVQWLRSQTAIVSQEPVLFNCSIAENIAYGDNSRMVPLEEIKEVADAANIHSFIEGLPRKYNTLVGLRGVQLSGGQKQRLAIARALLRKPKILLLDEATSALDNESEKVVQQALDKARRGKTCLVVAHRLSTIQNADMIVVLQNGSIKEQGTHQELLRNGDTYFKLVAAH
UniProt P21439: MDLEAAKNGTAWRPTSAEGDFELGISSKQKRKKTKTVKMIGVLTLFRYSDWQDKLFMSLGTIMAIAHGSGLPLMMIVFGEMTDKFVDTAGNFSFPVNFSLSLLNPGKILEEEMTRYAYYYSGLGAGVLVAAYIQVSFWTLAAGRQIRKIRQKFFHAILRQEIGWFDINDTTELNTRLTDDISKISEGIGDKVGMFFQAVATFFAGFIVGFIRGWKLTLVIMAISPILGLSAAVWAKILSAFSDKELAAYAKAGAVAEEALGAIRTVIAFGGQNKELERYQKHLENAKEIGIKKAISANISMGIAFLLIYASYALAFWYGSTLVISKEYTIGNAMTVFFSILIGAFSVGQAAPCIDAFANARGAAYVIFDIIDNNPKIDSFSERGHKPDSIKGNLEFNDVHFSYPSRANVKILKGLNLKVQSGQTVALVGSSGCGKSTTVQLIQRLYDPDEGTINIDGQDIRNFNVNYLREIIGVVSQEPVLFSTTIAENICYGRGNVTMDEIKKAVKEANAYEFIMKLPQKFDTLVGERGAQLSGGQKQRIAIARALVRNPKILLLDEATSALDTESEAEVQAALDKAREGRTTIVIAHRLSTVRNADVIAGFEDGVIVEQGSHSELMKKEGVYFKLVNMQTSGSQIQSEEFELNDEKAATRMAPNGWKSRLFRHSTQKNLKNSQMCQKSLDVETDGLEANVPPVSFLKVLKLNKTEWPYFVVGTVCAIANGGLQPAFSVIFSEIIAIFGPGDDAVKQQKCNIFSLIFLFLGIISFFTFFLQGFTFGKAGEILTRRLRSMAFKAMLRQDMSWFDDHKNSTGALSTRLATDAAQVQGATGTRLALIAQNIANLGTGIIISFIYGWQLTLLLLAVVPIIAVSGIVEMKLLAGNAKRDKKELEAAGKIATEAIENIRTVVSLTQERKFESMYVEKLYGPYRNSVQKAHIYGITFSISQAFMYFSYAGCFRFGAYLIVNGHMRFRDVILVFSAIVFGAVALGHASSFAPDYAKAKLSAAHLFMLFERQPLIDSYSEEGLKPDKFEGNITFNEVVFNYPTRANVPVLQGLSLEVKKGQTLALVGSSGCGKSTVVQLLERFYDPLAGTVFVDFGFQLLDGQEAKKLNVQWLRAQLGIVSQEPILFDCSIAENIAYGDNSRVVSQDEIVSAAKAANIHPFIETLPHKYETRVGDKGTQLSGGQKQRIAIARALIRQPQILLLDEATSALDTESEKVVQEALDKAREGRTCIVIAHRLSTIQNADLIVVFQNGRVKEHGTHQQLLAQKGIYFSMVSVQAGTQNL

Key:
[1] = target: T1, murine ABCB5 peptide segment corresponding to the ABCB5 linear epitope peptide (murine) (UniProt B5X0E4); assay: linear peptide ELISA, BSA-conjugated peptides (20 µM), OD 450 nm (mAb-Iso (InVivoPlus+))
T1 sequence (peptide, looked up): RFGAYLIQAGRMMPEG

[2] = target: T2, ABCB4 peptide segment corresponding to the ABCB5 linear epitope peptide (human) (UniProt P21439); assay: as above
T2 sequence (peptide, looked up): RFGAYLIVNGHMRFRD

[3] = target: T1, murine ABCB5 peptide segment corresponding to the ABCB5 linear epitope peptide (murine); assay: linear peptide ELISA, BSA-conjugated peptides (20 µM), OD 450 nm (mAb-Iso)
[4] = target: T1, murine ABCB5 peptide segment corresponding to the ABCB5 linear epitope peptide (murine); assay: linear peptide ELISA (20 uM peptides)

B1: ABCB5-Ab101 (antibody, human IgG1, kappa, V domains shown)
VH: QVQLVQSGAEVKKPGASVKVSCKASGYTFTSYYMHWVRQAPGQGLEWMGIINPSGGSTSYAQKFQGRVTMTRDTSTSTVYMELSSLRSEDTAVYYCARDQAVTGTAYYYYYGMDVWGQGTTVTVSS
VL: EIVLTQSPGTLSLSPGERATLSCRASQSVNSNYLAWYQQKPGQAPRLLIYGTSSRATGIPDSFSGSGSGTDFTLTISRLEPEDFAVYYCQQFGSSPLTFGGGTKVEIKR
notes: Fully human monoclonal IgG1 kappa
With B1 the binding [1] was “binds” and the binding [2] was “binds”.

B2: ABCB5-Ab43 (antibody, V domains shown)
VH: B1 VH with A40S
VL: EIVLTQSPGTLSLSPGERATLSCRASQSVNSKYLAWYQQKPGQAPRLLIYGTSSRATGIPDSFSGSGSGTDFTLTISRLEPEDFAVYYCQQFGSSPLTFGGGTKVEIK
In the case of B2, the binding [1] is reported as “binds” and the binding [2] is reported as “binds”.

B3: ABCB5-Ab42 (antibody, V domains shown)
VH: B1 VH with A24T, A40S
VL: B2 VL with Q27L, K32N
notes: detection was with an anti-human secondary antibody
With B3 the binding [1] was “binds” and the binding [2] was “binds”.

B4: ABCB5-Ab44 (antibody, V domains shown)
VH: B1 VH with Q65K
VL: B2 VL with K32N
notes: also called A44; F01
B4 was tested, and the binding [1] was “binds” and the binding [2] was “binds”.

B5: ABCB5-Ab45 (antibody, V domains shown)
VH: B1 VH with S31N, L45P, Q100L
VL: B2 VL with I2F, K32N
In the case of B5, the binding [1] is reported as “binds” and the binding [2] is reported as “binds”.

B6: ABCB5-Ab100 (antibody, human IgG1, kappa, V domains shown)
VH: EVQLVESGGGLVQPGGSLRLSCAASGFTFSSYSMNWVRQAPGKGLEWVSYISSSSSTIYYADSVKGRFTISRDNAKNSLYLQMNSLRDEDTAVYYCASNYQYGDYGGYWGRGTLVTVSS
VL: AIQLTQSPSSLTGSVGDRVTITCQASHDISNFLNWYQQKPGQAPKLLIYDAYNLQTGVPSRFSGTGSGTHFTLTINSLQPEDVGTYFCQQYDYFLSITFGQGTRLEIKR
In the case of B6, the binding [3] is reported as “binds” and the binding [4] is reported as “binds”.
